Experimental data reported in PMC4882559 (Marine Drugs, 2016).

Test: general procedure: solution-phase peptide synthesis; HATU/DIPEA
Conditions: coupling step
With “(S)-2-((R)-2-(Dimethylamino)-3-methylbutanamido)-N-((3R,4S,5S)-1-((S)-2-((1R,2R)-3-(3-(2-fluorophenyl)azetidin-1-yl)-1-methoxy-2-methyl-3-oxopropyl)pyrrolidin-1-yl)-3-methoxy-5-methyl-1-oxoheptan-4-yl)-N,3-dimethylbutanamide” the step yield was 40%. Work on “(S)-2-((R)-2-(Dimethylamino)-3-methylbutanamido)-N-((3R,4S,5S)-1-((S)-2-((1R,2R)-3-(3-(2-isopropylphenyl)azetidin-1-yl)-1-methoxy-2-methyl-3-oxopropyl)pyrrolidin-1-yl)-3-methoxy-5-methyl-1-oxoheptan-4-yl)-N,3-dimethylbutanamide” yielded a step yield of 48%. Work on “(S)-2-((R)-2-(Dimethylamino)-3-methylbutanamido)-N-((3R,4S,5S)-1-((S)-2-((1R,2R)-3-(3-(3-fluorophenyl)azetidin-1-yl)-1-methoxy-2-methyl-3-oxopropyl)pyrrolidin-1-yl)-3-methoxy-5-methyl-1-oxoheptan-4-yl)-N,3-dimethylbutanamide” yielded a step yield of 54%. Work on “(S)-2-((R)-2-(Dimethylamino)-3-methylbutanamido)-N-((3R,4S,5S)-3-methoxy-1-((S)-2-((1R,2R)-1-methoxy-2-methyl-3-oxo-3-(3-phenylazetidin-1-yl)propyl)pyrrolidin-1-yl)-5-methyl-1-oxoheptan-4-yl)-N,3-dimethylbutanamide” yielded a step yield of 45%. Work on “(S)-N-((3R,4S,5S)-1-((S)-2-((1R,2R)-3-(3-(3-Chloro-4-fluorophenyl)azetidin-1-yl)-1-methoxy-2-methyl-3-oxopropyl)pyrrolidin-1-yl)-3-methoxy-5-methyl-1-oxoheptan-4-yl)-2-((R)-2-(dimethylamino)-3-methylbutanamido)-N,3-dimethylbutanamide” yielded a step yield of 44%. “(S)-N-((3R,4S,5S)-1-((S)-2-((1R,2R)-3-(3-(4-(tert-Butyl)phenyl)azetidin-1-yl)-1-methoxy-2-methyl-3-oxopropyl)pyrrolidin-1-yl)-3-methoxy-5-methyl-1-oxoheptan-4-yl)-2-((R)-2-(dimethylamino)-3-methylbutanamido)-N,3-dimethylbutanamide” gave a step yield of 35%. Work on “(S)-N-((3R,4S,5S)-1-((S)-2-((1R,2R)-3-(3-(4-Chloro-2-methoxyphenyl)azetidin-1-yl)-1-methoxy-2-methyl-3-oxopropyl)pyrrolidin-1-yl)-3-methoxy-5-methyl-1-oxoheptan-4-yl)-2-((R)-2-(dimethylamino)-3-methylbutanamido)-N,3-dimethylbutanamide” yielded a step yield of 45%. With “(S)-N-((3R,4S,5S)-1-((S)-2-((1R,2R)-3-(3-(4-Chlorophenyl)azetidin-1-yl)-1-methoxy-2-methyl-3-oxopropyl)pyrrolidin-1-yl)-3-methoxy-5-methyl-1-oxoheptan-4-yl)-2-((R)-2-(dimethylamino)-3-methylbutanamido)-N,3-dimethylbutanamide” the step yield was 66%. Substance “(S)-N-((3R,4S,5S)-1-((S)-2-((1R,2R)-3-(3-([1,1′-Biphenyl]-4-yl)azetidin-1-yl)-1-methoxy-2-methyl-3-oxopropyl)pyrrolidin-1-yl)-3-methoxy-5-methyl-1-oxoheptan-4-yl)-2-((R)-2-(dimethylamino)-3-methylbutanamido)-N,3-dimethylbutanamide” has a step yield of 70%.
